# Experimental data from PubChem BioAssay AID602330 (Sanford-Burnham Center for Chemical Genomics, 2012).
# Chains of the proteins cited; added tags and fusions are not shown. Lines headed by an entry give the natural chain unless they say otherwise; changes in a name come on top.
# UniProt P08253: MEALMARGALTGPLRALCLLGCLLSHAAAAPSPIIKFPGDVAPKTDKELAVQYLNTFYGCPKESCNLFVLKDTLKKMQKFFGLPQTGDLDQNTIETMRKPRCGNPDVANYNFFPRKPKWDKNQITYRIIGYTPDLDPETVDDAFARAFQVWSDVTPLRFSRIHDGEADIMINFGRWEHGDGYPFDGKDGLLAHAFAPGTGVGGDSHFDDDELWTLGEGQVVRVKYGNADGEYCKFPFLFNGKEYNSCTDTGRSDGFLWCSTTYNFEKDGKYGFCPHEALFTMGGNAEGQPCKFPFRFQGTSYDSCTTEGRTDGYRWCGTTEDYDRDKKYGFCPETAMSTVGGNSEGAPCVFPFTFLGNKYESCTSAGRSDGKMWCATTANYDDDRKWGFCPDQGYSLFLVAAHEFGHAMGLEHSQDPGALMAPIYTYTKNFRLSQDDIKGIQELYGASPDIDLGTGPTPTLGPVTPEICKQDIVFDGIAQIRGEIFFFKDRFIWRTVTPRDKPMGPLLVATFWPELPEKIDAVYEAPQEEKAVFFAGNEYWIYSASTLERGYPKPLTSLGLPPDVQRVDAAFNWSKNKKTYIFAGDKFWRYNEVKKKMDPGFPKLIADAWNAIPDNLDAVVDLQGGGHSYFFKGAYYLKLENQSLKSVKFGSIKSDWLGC
# Screen size: about 1,900 compounds; about 85 (4%) were called active. No stated cut-off is given here; in the data, active means inhibition above about 40%; inactive means the rest. Only a part is listed here, and it is no random draw.
# Molecular target: 72 kDa type IV collagenase (Homo sapiens) (UniProt P08253)
# Assay: MMP-2 enzyme inhibition, confirmation, counter-screen for RPN11 inhibitor project, biochemical, fluorescence, single concentration (AID 602330);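 further: human MMP-2 activated beforehand with APMA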
# Conditions: recombinant MMP-2, FRET peptide cleavage fluorescence; at 20 µM; hits give high values
row,Structure (SMILES),inhibition
1,Cc1ccc(/C=C2\C(=O)NC(=S)N(c3ccc(F)cc3)C2=O)o1,active: 54.9%
2,Cc1cccc(N2C(=O)NC(=O)/C(=C\c3cnn(-c4ccccc4)c3)C2=O)c1,inactive: 39.2%
